{
  "sequences": {"note": "By UniProt entry, the sequences of proteins in these tests, tags left out.", "UniProt Q5XI73": "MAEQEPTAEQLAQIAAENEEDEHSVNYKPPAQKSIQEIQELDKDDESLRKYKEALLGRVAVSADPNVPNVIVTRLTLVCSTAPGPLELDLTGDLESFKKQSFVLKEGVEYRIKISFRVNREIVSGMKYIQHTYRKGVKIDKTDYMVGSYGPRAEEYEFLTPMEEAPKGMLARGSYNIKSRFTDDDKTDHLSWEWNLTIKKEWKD", "UniProt P61589": "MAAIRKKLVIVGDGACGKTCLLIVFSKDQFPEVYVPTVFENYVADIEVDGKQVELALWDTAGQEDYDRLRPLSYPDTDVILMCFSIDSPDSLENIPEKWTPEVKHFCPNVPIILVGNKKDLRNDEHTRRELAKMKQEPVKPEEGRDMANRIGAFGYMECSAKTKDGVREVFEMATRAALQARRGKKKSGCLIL"},
  "source": "paper PMC11599123",
  "target": "GST-RhoGDI1 (UniProt Q5XI73)",
  "experiment": "pull-down; GST-RhoGDIs (or GST only) immobilised on glutathione agarose beads, incubated with RBL-2H3 lysate 1 h at 4 °C (50 mM HEPES pH 7.5, 50 mM NaCl, 5 mM MgCl2, 1% Triton X-100); immunoblot for RhoA, RhoG, Rac1, Rac2, Cdc42; only the target purified",
  "note": "Results are given in words; binding and its absence hold for the method and conditions named. Binding seen in cells or lysates may run through a third protein. Some entries that bind do so weakly or less than the wild type.",
  "data": [
    {"substance": "RhoA, endogenous in RBL-2H3 cells (from UniProt P61589 1-193)", "values": [
      {"measurement": "binding", "result": "binds"}
    ]}
  ]
}
